This is an account of results in PMC12120709.

These are yes or no findings as the source states them, for the method shown. In cells and extracts the contact can be indirect. For some of these results: A result given as binding can be weak or reduced; the word gives no strength.

Test [1] has as its target integrin αv (mouse (endogenous in C2C12)). Nature of the test: condition: only cells on hydrogels coated with laminin-111 in place of fibronectin; proximity ligation; Duolink PLA in C2C12 myoblasts seeded on PAAm hydrogels of different stiffnesses functionalized with laminin-111, untreated or stimulated with soluble boron (0.59 and 1.47 mM).
The target in test [2] is integrin α5 (mouse (endogenous in C2C12)). Described as above.
For test [3], the target named is integrin αv (mouse (endogenous in C2C12)). The test can be described thus: proximity ligation; Duolink PLA in C2C12 myoblasts seeded on rigid PAAm hydrogels functionalized with fibronectin, untreated or stimulated with soluble boron (0.59 and 1.47 mM); a dot where two proteins are closer than 40 nm.
For test [4], the target named is integrin α5 (mouse (endogenous in C2C12)). The description is as above.

B1: NaBC1 boron transporter (protein, UniProt A2AJN7 1-862)
chain: MSQNEHCQDSGEYFSAGTQGYFKNNMEDNLEVREDSLGDEVFDTVNSSIVSGESIRFFVNVNLEVQPSKSDLEAATGGCVLLHTSRKYLKLKNFEEEVRAHRDLDGFLAQASIILNETATSLDDVLRTMLNRFALDPNHAEPDCDLDLLMAKLFTDAGAPMESKVHLLSDTIQGVTATVRGVQYEQSWLCIICTMKTLQKRHVCISRLVRPQNWGENSCEVRFVILVLAPPKMKSTKTAMEVARTFATMFSDITFRQKLLKTRTEEEFKEALVHQRQLLTMMMPRAAGHSMSSLHTHRHPQPPKCKDFFPFGKGIWMDIMRRFPVYPMDFTDGIIGKSKSVGKYVTTTLFLYFACLLPTIAFGSLNDENTNGAIDVQKTIAGQSIGGLLYALFSGQPLVILLTTAPLAIYTQVIRVICDDYNLDFNAFYAWTGLWNSFFLALYAFLNLSLLMNLFKRSTEEIIALFISITFVLDAVKGMVKIFGKYYYGHHYHTKRTSSLVSLLGIGRSPNSSLHTALNASLLASPVEMATTSSPGSTHSGQATAVLSLLIMLGTLWLGYTLYQFKKSPYLHPCVRETLSDCALPIAVLSFSLIGSYGFQEIEMSKFRYNPSESLFEVAQIHSLSFKAIGSAMGLGFLLSLLFFIEQNLVAALVNAPENRLVKGTAYHWDLLLLAIINTGLSLFGLPWIHAAYPHSPLHVRALALVEERVENGHIYETIVDVKETRLTALGASVLVGLSLLLLPFPLQWIPKPVLYGLFLYIALTSLDGNQLFSRVALLLKEQTSYPPTHYIRRVPQRKIHYFTGLQILQLLLLCAFGMSSLPYMKMVFPLIMIAMIPIRYNLLPRIIEAKYLDVMDAEHRP
For B1, the binding entry is on record as “no binding” in test [1], “no binding” in test [2], “binds” in test [3] and “binds” in test [4].
